Laboratory results published in patent US20210363254A1, “PHARMACEUTICAL COMBINATIONS” (Novartis AG, priority 2018, published 2021).
Where two headings read alike, the source gives them in different places.

Conditions: patients with at least stable disease

COc1ncc(-c2nc3c(n2C(C)C)[C@H](c2ccc(Cl)cc2)N(c2cc(Cl)cn(C)c2=O)C3=O)c(OC)n1 [HDM201, (S)-5-(5-Chloro-1-methyl-2-oxo-1,2-dihydro-pyridin-3-yl)-6-(4-chloro-phenyl)-2-(2,4-dimethoxy-pyrimidin-5-yl)-1-isopropyl-5,6-dihydro-1H-pyrrolo[3,4-d]imidazol-4-one]
Relative dose intensity during the first 32 weeks of treatment, Median (Regimen 1A ≥100 mg (n = 20)): 0.73
Relative dose intensity during the first 32 weeks of treatment, Median (Regimen 1B ≥120 mg (n = 20)): 0.87
Relative dose intensity during the first 32 weeks of treatment, Median (Regimen 2A ≥7.5 mg (n = 13)): 0.97
Relative dose intensity during the first 32 weeks of treatment, Median (Regimen 2C ≥15 mg (n = 19)): 1
